Source: patent publication US20100313281A1 (published 2010)
No constants are given. Whether binding was seen depends on the method and setting. In cells and extracts the contact can be indirect. Some entries that bind do so weakly or less than the wild type. Tags and fused reporters may be left off the sequences shown.

Target: T1, untagged human Zcyto7 (human) (UniProt Q9UHF5)
T1 sequence (looked up): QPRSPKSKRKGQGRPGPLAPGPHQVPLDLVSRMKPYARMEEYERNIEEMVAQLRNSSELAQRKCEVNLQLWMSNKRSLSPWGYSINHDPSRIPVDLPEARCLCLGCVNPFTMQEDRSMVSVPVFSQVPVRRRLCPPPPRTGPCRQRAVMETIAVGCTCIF
Assay: co-expression in BHK cells, anti-EE affinity co-purification; interaction did not appear to be due to interchain disulfide bonding

B1: Human Ztgfβ-9 protein (ligand)
chain: AGAPRAGRRPARPRGCADRPEELLEQLYGRLAAGVLSAFHHTLQLGPREQARNASCPAGGRPADRRFRPPTNLRSVSPWAYRISYDPARYPRYLPEAYCLCRGCLTGLFGEEDVRFRSAPVYMPTVVLRRTPACAGGRSVYTEAYVTIPVGCTCVPEPEKDADSINSSIDKQGAKLLLGPNDAPAGP
notes: also called transforming growth factor beta-9
In the case of B1, the binding is reported as “binds”.
